{
  "source": "patent US20030108619A1",
  "about": "“Bone-strengthening agents, food compositions for strengthening bone and feed compositions for strengthening bone” (priority 2000, published 2003)",
  "assay": "Body weight after completion of the feeding, Example 2",
  "format": "in vivo, rat",
  "details": "50-weeks old normal female Wistar rats, oral once a day for 14 days, CPP 40 mg/100 g body weight, genistein 50 μg/100 g body weight",
  "method": "2. CPP-administered group: Basic feed+CPP (40 mg/100 g body weight)\n3. Genistein-administered group: Basic feed+genistein (50 μg/100 g body weight)\n4. CPP+genistein-administered group: Basic feed+CPP (40 mg/100 g body weight)+genistein (50 μg/100 g body weight)\nAs the CPP, a solution of CPP-III (casein phosphopeptide content 85%) manufactured by Meiji Seika Kaisha, Ltd., dissolved in distilled water was used. As the genistein, a reagent (manufactured by Sigma Chemical Company in U.S. A.) extracted from soybean and highly purified, dissolved in a 10% ethanol solution was used.\nAnimal groups each consisting of five animals were fed with the basic feed under constant temperature and constant humidity conditions of room temperature 25° C., and 55% humidity. In addition, the control group was administered with 1 ml/100 g body weight of purified distilled water and the other groups were each orally administered with CPP and/or genistein in the above-mentioned amounts once a day for 14 days by using a stomach tube. After 24 hours from the last administration, the rats were sacrificed and the femora were extracted. The extracted femora were used for the measurement of bone components as shown below.\nSignificant tests of respective measured values were performed by using Student's t-test. Values with a risk factor of 5% or less were taken as significant. […]",
  "data": [
    {"smiles": "O=c1c(-c2ccc(O)cc2)coc2cc(O)cc(O)c12", "note": "[Genistein, genistein]", "values": [
      {"measurement": "Body weight after completion of the feeding", "value": "229.6 ± 7.6", "unit": "g"},
      {"measurement": "Body weight after completion of the feeding", "setting": "listed as genistein", "value": "229.6 ± 7.6", "unit": "g"}
    ]}
  ]
}
